Source: paper PMC10667816, “A Cell‐Penetrant Peptide Disrupting the Transcription Factor CP2c Complexes Induces Cancer‐Specific Synthetic Lethality” (Advanced Science, 2023)
These are yes or no findings as the source states them, for the method shown. Binding seen in cells or lysates may run through a third protein. Some results given as binding are weak or reduced against the parent protein; the word gives no strength. Blank lines part the entries; values can stand above or below the binder they belong to.

Assays:
[1] = molecular target: CP2c (source not told: Figures S10, S15A,B and S16J) (UniProt Q12800); assay: co-IP + pull-down; in vitro IP and pulldown assays with Pep #5 or Pep #5‐2 added, with or without probe DNA
[2] = molecular target: T1, endogenous CP2c (human (endogenous in MDA‐MB‐231)) (UniProt Q12800); assay: cross-linking; live cells cross-linked with 2 mM DSP in PBS, 3 h on ice; nuclear and cytosolic fractions; Western blot for CP2c (DSP XL-WB); with or without Pep #5‐2C
T1 sequence: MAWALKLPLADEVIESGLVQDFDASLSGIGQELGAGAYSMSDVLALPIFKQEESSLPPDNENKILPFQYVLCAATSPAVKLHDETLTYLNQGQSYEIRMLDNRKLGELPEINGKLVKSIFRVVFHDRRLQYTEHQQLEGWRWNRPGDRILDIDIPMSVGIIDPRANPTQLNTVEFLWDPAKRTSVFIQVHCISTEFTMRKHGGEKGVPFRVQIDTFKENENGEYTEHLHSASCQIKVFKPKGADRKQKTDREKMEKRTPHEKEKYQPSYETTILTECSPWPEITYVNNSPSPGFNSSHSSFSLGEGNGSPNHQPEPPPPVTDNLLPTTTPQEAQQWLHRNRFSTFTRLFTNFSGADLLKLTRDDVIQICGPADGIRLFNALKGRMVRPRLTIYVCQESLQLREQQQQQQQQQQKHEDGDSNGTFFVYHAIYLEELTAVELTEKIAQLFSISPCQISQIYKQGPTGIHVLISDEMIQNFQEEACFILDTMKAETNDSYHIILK

[3] = molecular target: T2, ectopically overexpressed CP2c (UniProt Q12800); assay: co-IP; ectopically overexpressed CP2c and TDP2 in 293T cells; lysis buffer 50 mM Tris‐HCl pH 7.4, 150 mM NaCl, 1 mM EDTA, 0.1% triton X‐100
T2 sequence: T1 sequence

[4] = molecular target: T1, endogenous CP2c (human (endogenous in MDA‐MB‐231)); assay: co-IP; endogenous proteins of MDA‐MB‐231 cells, with or without ACP52C treatment; lysis buffer 50 mM Tris‐HCl pH 7.4, 150 mM NaCl, 1 mM EDTA, 0.1% triton X‐100

B1: CP2c (source not told: Figures S10, S15A,B and S16J) (protein, UniProt Q12800 1-502)
chain: T1 sequence
binding [1]: binds

B3: ectopically overexpressed TDP2 (protein, UniProt O95551 1-362)
chain: MELGSCLEGGREAAEEEGEPEVKKRRLLCVEFASVASCDAAVAQCFLAENDWEMERALNSYFEPPVEESALERRPETISEPKTYVDLTNEETTDSTTSKISPSEDTQQENGSMFSLITWNIDGLDLNNLSERARGVCSYLALYSPDVIFLQEVIPPYYSYLKKRSSNYEIITGHEEGYFTAIMLKKSRVKLKSQEIIPFPSTKMMRNLLCVHVNVSGNELCLMTSHLESTRGHAAERMNQLKMVLKKMQEAPESATVIFAGDTNLRDREVTRCGGLPNNIVDVWEFLGKPKHCQYTWDTQMNSNLGITAACKLRFDRIFFRAAAEEGHIIPRSLDLLGLEKLDCGRFPSDHWGLLCNLDIIL
binding [3]: binds

Now from value to binder:

binding [2]: binds
B2: endogenous CP2c (protein, UniProt Q12800 1-502)
chain: T1 sequence

binding [4]: binds
B4: endogenous TDP2 (protein, UniProt O95551 1-362)
chain: B3 chain
